Results reported in article PMC7862700.
The list shows a part of the results. The exact form of the protein is not confirmed.

Each sequence was assayed against T1, ELF2 (UniProt Q15723) (assay: DAPPL (digital affinity profiling via proximity ligation, sequencing)). Settings: 10 mM Tris-HCl pH 7.5, 50 mM NaCl, 1 mM DTT, 4% glycerol, room temperature, 30 min; GST-TFs on glutathione beads, 16-mer random dsDNA library, 0.1% …; high values mean tight binding; double strand, one strand shown; scale: fold enrichment (6-mer frequency, TF over GST control).
T1 sequence: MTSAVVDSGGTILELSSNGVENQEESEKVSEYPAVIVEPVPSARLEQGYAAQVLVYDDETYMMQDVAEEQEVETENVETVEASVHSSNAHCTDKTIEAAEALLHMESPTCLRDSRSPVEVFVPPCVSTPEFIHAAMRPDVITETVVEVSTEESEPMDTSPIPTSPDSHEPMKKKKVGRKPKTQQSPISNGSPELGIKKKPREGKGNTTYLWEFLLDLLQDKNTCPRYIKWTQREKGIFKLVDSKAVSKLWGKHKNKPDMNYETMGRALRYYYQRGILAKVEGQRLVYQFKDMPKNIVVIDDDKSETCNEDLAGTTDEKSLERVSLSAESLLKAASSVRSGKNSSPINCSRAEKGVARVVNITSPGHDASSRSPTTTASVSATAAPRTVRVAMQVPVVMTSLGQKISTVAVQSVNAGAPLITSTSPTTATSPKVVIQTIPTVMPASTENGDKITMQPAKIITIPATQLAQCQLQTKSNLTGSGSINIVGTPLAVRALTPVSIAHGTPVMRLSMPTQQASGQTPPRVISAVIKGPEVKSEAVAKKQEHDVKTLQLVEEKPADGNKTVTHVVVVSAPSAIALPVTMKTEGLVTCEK
Sequence TTTGCC has a binding signal of 1.19. In the case of AAACAC, the binding signal was 1.32. With AATCTG the binding signal was 1.38. Work on CCTGCG yielded a binding signal of 1.27. TTGCGA gave a binding signal of 1.05. In the case of ATTGGG, the binding signal was 1.13. Work on GCTCCC yielded a binding signal of 1.23. For TCTTCG, the binding signal was 1.36. TACTCC gave a binding signal of 1.23. TAAGAG was tested, and the binding signal was 0.854. For ACATGC, the binding signal was 1.27. For GGATCA, the binding signal was 0.773. For TGACCC, the binding signal was 1.36. In the case of CTTAGT, the binding signal was 1.15. In the case of AGAATA, the binding signal was 1.06. TAAACC gave a binding signal of 1.26. Work on ATTAAA yielded a binding signal of 1.12. AACCGA was tested, and the binding signal was 1. In the case of AACAAC, the binding signal was 1.32. For CACTGC, the binding signal was 1.37. Work on AGGTTC yielded a binding signal of 0.891. Sequence GTCTGG has a binding signal of 0.814. TTCGAG showed a binding signal of 1.18. CTCGTC gave a binding signal of 1.24. Sequence TCGGCT has a binding signal of 0.902. Sequence CCTTAT has a binding signal of 1.54. CTGCTC showed a binding signal of 1.17. With TAGCAT the binding signal was 1.11. Sequence TGGGAA has a binding signal of 1.06. Work on TTCCCA yielded a binding signal of 1.33. TAGACA showed a binding signal of 0.941. CACAAG showed a binding signal of 1.1. AGAAGG showed a binding signal of 0.707. CCAGAA gave a binding signal of 0.987. With TACCTG the binding signal was 1.11. In the case of AATACG, the binding signal was 1.29. TAGACT showed a binding signal of 0.925. For CTAGGA, the binding signal was 0.925. In the case of GATCAA, the binding signal was 0.933. AATGTA gave a binding signal of 1.18.
